In PubChem BioAssay AID1347076 (National Center for Advancing Translational Sciences (NCATS), 2019):
Screen size: about 400,000 compounds; about 13,000 (3.2%) were called active. Inconclusive results, whose numbers are uncertain, are shown with a selection of clear calls. The call rests on the fitted dose curve; in most records, active means well fitted cell-killing curve with a large enough effect; inconclusive means small, poorly fitted or top-dose-only effect, or effect the other way; inactive means flat fitted curve, though single readings scatter. Where the call is inconclusive, the potency comes from a doubtful curve fit.

Assay: qHTS assay for MDR1-selective chemotherapeutics: Primary screen using the drug-selected MDR subline cells KB-V1; further: nearly all actives have a fitted effect of over 60% in size
Conditions: KB-V1 MDR cells viability, CellTiter-Glo, 72 h; activity change, negative = cytotoxicity: at 46.1 µM (top of the series)
Outline: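 Cytotoxicity toward P-gp-expressing KB-V1 cells was determined as loss of CellTiter-Glo luminescence after 72 h at 37 degrees C. Compounds were tested in quantitative HTS format across a concentration range, with curves fitted to normalized data.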
On the % scale 0 is the no-effect control and ±100 the full control effect; potency means the concentration at half of the fitted maximal effect.

Structure (SMILES) | Potency | activity change, negative = cytotoxicity
O=C(CSc1nnc(NC(=O)c2ccccc2[N+](=O)[O-])s1)NCc1ccco1 | inconclusive: 5.8 µM [rising, partial curve, poor fit] | 
O=C(CNc1ccc2ccccc2c1)N/N=C/c1cc2ccccc2nc1Cl |  | inactive: -16.6%
COc1ccccc1NC(=O)CCNS(=O)(=O)c1ccc2c(c1)CCCC(=O)N2 |  | inactive: -1.02%
COc1ccc(/C=N/N2CCN(C3c4ccccc4-c4ccccc43)CC2)cc1O | inconclusive: 29.1 µM [cytotoxic, single point] | 
Cc1nnnn1-c1ccc(CC(=O)O)cc1 | inconclusive: 4.11 µM [rising, full curve, poor fit] | 
CCC(C)CCN1C(Nc2ccccc2)=NC[C@@H]1C (stereo partly specified) | inconclusive: 4.11 µM [rising, partial curve] | 
CN(Cc1ccccc1)C(=O)CSc1nc2ccccc2n1Cc1ccccc1F |  | inactive: 8.9%
O=C(CCC1CCCN(C(=O)C2=CCCCC2)C1)N1CCN(c2ccccn2)CC1 (stereo unspecified) | inconclusive: 9.2 µM [cytotoxic, partial curve] | 
CC(OC(=O)c1ccc(S(=O)(=O)N2CCOCC2)cc1)c1ccccc1 (stereo unspecified) | inconclusive: 14.6 µM [cytotoxic, partial curve, poor fit] | 
COc1ccc2nc(SCC(=O)N3CCNC3=O)[nH]c2c1 |  | inactive: -2.19%
COc1cccc(/C=C/c2ccnc3ccccc23)c1OC |  | inactive: -14%
CCc1c(C#N)c(SCc2c(C)noc2C)nc2c1C(=O)CC(C)(C)C2 | inconclusive: 2.31 µM [cytotoxic, full curve] | 
COc1cc2c(cc1OC)C(COc1ccc([N+](=O)[O-])cc1)N(C(C)=O)CC2 (stereo unspecified) | inconclusive: 6.51 µM [cytotoxic, full curve] | 
CC(NC(=O)c1cc([N+](=O)[O-])cc([N+](=O)[O-])c1)C1CC2CCC1C2 (stereo unspecified) | inconclusive: 14.6 µM [cytotoxic, single point] | 
CCN(CC)S(=O)(=O)c1ccc(C)c(NC(=O)COC(=O)C=C(C)C)c1 | inconclusive: 14.6 µM [cytotoxic, partial curve] | 
COc1ccc(CC(=O)Nc2nc(-c3ccncc3)cs2)cc1 |  | inactive: -2.48%
O=C1CCN(CC2CCCCC2)C=C1C(=O)c1ccccc1 |  | inactive: -3.55%
CCOc1ccc(S(=O)(=O)NCCC(=O)N(CC)CC(=O)Nc2c(F)cccc2F)cc1 |  | inactive: 23%
CC1CC(C)CN(CCCNC(=O)CN2C(=O)CSc3ccc(S(=O)(=O)N4CCCCC4)cc32)C1 (stereo unspecified) | inconclusive: 0.0052 µM [rising, full curve, poor fit] | 
COc1ccc2nc(NC(=O)c3cc(C)oc3C)sc2c1 | inconclusive: 8.2 µM [cytotoxic, partial curve] | 
N#Cc1c(N)nc2c(c1-c1ccc3c(c1)OCO3)CCc1ccccc1-2 | inconclusive: 20.6 µM [cytotoxic, partial curve] | 
COc1cc2c(cc1NC(=O)c1cc(-c3cccnc3)nc3ccc(C)cc13)oc1ccccc12 |  | inactive: -0.196%
COc1ccc2ccccc2c1-c1csc(N)n1 | inconclusive: 29.1 µM [rising, single point] | 

Reprinted at random: 2 records from the list
Structure (SMILES) | Potency | activity change, negative = cytotoxicity
O=C(CNc1ccc2ccccc2c1)N/N=C/c1cc2ccccc2nc1Cl |  | inactive: -16.6%
CN(Cc1ccccc1)C(=O)CSc1nc2ccccc2n1Cc1ccccc1F |  | inactive: 8.9%

Following part:

Structure (SMILES) | Potency | activity change, negative = cytotoxicity
COc1cccc(CNC(=O)COC(=O)c2c(NC(C)=O)sc(C)c2C)c1 | inconclusive: 29.1 µM [cytotoxic, single point] | 
Oc1cccc2c(-c3nn[nH]n3)ccnc12 | inconclusive: 32.6 µM [rising, single point] | 
Cc1cc(/N=C/C=C2/N(C)c3ccccc3C2(C)C)n(CCC#N)n1 | inconclusive: 20.6 µM [cytotoxic, single point] | 
COc1ccc(N2CC(NC(=O)N3CCN(C(=O)c4ccco4)CC3)CC2=O)cc1OC (stereo unspecified) |  | inactive: 14.9%
CC(C)(C)c1cc(NC(=O)Nc2ccc(Br)cc2Cl)no1 |  | inactive: 1.04%
Cc1cc(C)n2nc(C(=O)Nc3ccc(S(=O)(=O)N(C)C)cc3)nc2n1 | inconclusive: 29.1 µM [rising, single point] | 
COc1ccc(N2CCN(C(=O)c3ccc(Cl)c(S(=O)(=O)N4CCOCC4)c3)CC2)cc1 | inconclusive: 16.4 µM [cytotoxic, single point] | 
c1ccc(OCc2nn3c(-c4cccnc4)nnc3s2)cc1 |  | inactive: 13.6%
CCOC(=O)C(CC)(CC)C(=O)/C=C/c1cccc(Br)c1 | inconclusive: 29.1 µM [cytotoxic, single point] | 
CN(C)S(=O)(=O)c1cccc(NC(=O)CSc2nc3ccccc3n2-c2ccccc2)c1 | active: 2.31 µM | 
OC(CNC1Cc2ccccc2C1)COc1ccc(Cl)cc1 (stereo unspecified) |  | inactive: 29.7%
CS(=O)(=O)Nc1ccc(C(=O)Nc2ccc(S(=O)(=O)Nc3nccs3)cc2)cc1 | inconclusive: 18.4 µM [rising, single point] | 
COc1cccc(NC(=O)CN(C)C(=O)COc2ccc3ccccc3c2)c1 | active: 14.6 µM | 
CC12CCC(C(=O)Nc3ccccc3-n3cccc3)(CC1=O)C2(C)C (stereo unspecified) | inconclusive: 16.4 µM [cytotoxic, single point] | 
Cc1ccc(CNC(=O)Cn2cc(S(=O)(=O)Cc3ccccc3F)c3ccccc32)cc1 |  | inactive: -10%
O=C(COc1ccc(Br)cc1Cl)N1CCN(c2ncccn2)CC1 |  | inactive: 4.44%
O=[N+]([O-])c1ccc(N2CCN(Cc3ccc4c(c3)OCO4)CC2)nc1 | inconclusive: 0.092 µM [rising, full curve] | 
O=C(NCCCNc1ccc(C(F)(F)F)cc1[N+](=O)[O-])c1ccc(F)cc1 | inconclusive: 18.4 µM [cytotoxic, single point] | 
COc1cc(/C=C(\C#N)c2nc3ccccc3[nH]2)ccc1OC(=O)c1ccco1 | inconclusive: 16.4 µM [cytotoxic, partial curve] | 
O=S(=O)(CCOc1ccccc1)c1nc2ccccc2[nH]1 |  | inactive: 0%
COc1ccc(S(=O)(=O)NCc2ccc(C)cc2)cc1 | inconclusive: 18.4 µM [cytotoxic, partial curve, poor fit] | 
CCc1ccc2nc(N(CCN(C)C)C(=O)/C=C/c3cccs3)sc2c1 | inconclusive: 29.1 µM [cytotoxic, single point] | 
COc1cccc(NS(=O)(=O)c2cc3c4c(c2)CCC(=O)N4CCC3)c1 | inconclusive: 16.4 µM [cytotoxic, single point] | 
